These are literature values, as cited in patent US20090030504A1, “Medical devices comprising porous inorganic fibers for the release of therapeutic agents” (Boston Scientific Scimed, Inc., priority 2007, published 2009).

≈ marks a conversion by molar mass, not a printed value. Where two headings read alike, the source gives them in different places.

For orientation: solubility means the concentration that dissolves in the medium under given conditions. Consider `CC(=O)O[C@H]1C(=O)[C@@]2(C)[C@H]([C@H](OC(=O)c3ccccc3)[C@]3(O)C[C@H](OC(=O)[C@H](O)[C@@H](NC(=O)c4ccccc4)c4ccccc4)C(C)=C1C3(C)C)[C@]1(OC(C)=O)CO[C@@H]1C[C@@H]2O` [paclitaxel], for which the solubility was around 500 mg/mL (≈ 586 mM) (in DMSO) and around 100 mg/mL (≈ 117 mM) (in methanol).
